According to PMC10572361:
Results are given in words; binding and its absence hold for the method and conditions named. In cells and extracts the contact can be indirect. Some binding calls cover weakened binding; strength is not graded here.

Molecular target: BIRC5 (baculoviral IAP repeat containing 5; Survivin) (human (endogenous in A549)), O15392
Experiment: co-IP; Co-IP in A549 cells; which protein was precipitated is not told; n = 3
Settings: remark: other sources report otherwise

B1: caspase3, P42574 1-277 (enzyme)
chain: MENTENSVDSKSIKNLEPKIIHGSESMDSGISLDNSYKMDYPEMGLCIIINNKNFHKSTGMTSRSGTDVDAANLRETFRNLKYEVRNKNDLTREEIVELMRDVSKEDHSKRSSFVCVLLSHGEEGIIFGTNGPVDLKKITNFFRGDRCRSLTGKPKLFIIQACRGTELDCGIETDSGVDDDMACHKIPVEADFLYAYSTAPGYYSWRNSKDGSWFIQSLCAMLKQYADKLEFMHILTRVNRKVATEFESFSFDATFHAKKQIPCIVSMLTKELYFYH
For B1, the binding was “binds”.
